# In patent publication US20220313719A1, “METHODS OF TREATING DISEASES ASSOCIATED WITH CHANGES IN PLATELET COUNTS USING PROTEIN KINASE A ACTIVATOR AND INHIBITOR” (Soochow university, priority 2017, published 2022):
# At least one compound was matched to its structure with a doubt left.
# How the values were obtained:
# [1] = tested on: washed platelets; test: ITP patient serum-induced platelet apoptosis; assay type: cell-based, human; conditions: platelets pre-incubated with 5 uM forskin, then ITP serum 12 h
# [2] = tested on: stored platelets; test: Platelet apoptosis during platelet storage; assay type: cell-based; conditions: added during platelet storage
# [3] = tested on: stored platelets; test: Clearance of stored platelets in the body; conditions: in vivo
# Excerpt: In addition to apoptosis, there are other changes in storage damage that result in the clearance of stored platelets in the body. Therefore, we investigated whether PKA activation protects platelet from apoptosis while preventing the stored platelets from being cleared.
# [4] = tested on: BAD position 155; test: Western blot / co-immunoprecipitation of BAD Ser155 phosphorylation and Bel-xL in platelets; assay type: cell-based, human; conditions: 37.5 uM H89 or 10 uM forskin, 160 min
# Experimental: Next, we further explored the mechanism by which PKA inhibits induction of platelet apoptosis. At room temperature, 3×10^8/mL washed platelets were incubated with different concentration gradients of H89 or the DMSO internal reference for 160 min. The platelets were lysed on ice for 30 min with an equal volume of lysis buffer. The product was electrophoretically separated by SDS-PAGE to obtain protein fragments of different sizes. The protein fragments were blocked in skim milk powder for one hour and then the primary antibody was added for incubation. […] The washed platelets were pretreated with 37.5 uM H89, 10 uM forskin and the DMSO internal reference respectively for 160 min at room temperature. Cytoplasmic proteins (FIG. 8B) and mitochondrial proteins (FIG. 8D) were extracted from the platelets, respectively. The interest proteins were detected by western blot. The amount of the interest proteins was analyzed by Image J software. Four experiments were counted to show the results in mean±standard deviation. After lysis, the pre-treated platelets were centrifuged at 17,000 g for 10 min at 4° C. The obtained supernatant was incubated with the corresponding antibody for precipitation overnight, and after incubation with protein A/G+ agarose beads at 4° C. for 2 hours, the beads were eluted for protein hybridization (FIG. 8C).
structure (smiles),measurement,setting,value
C=C[C@@]1(C)CC(=O)[C@]2(O)[C@@]3(C)[C@@H](O)CCC(C)(C)[C@@H]3[C@H](O)[C@H](OC(C)=O)[C@@]2(C)O1 [Forskolin],ITP patient serum-induced platelet apoptosis,[1],significantly reduced
same,onset of platelet apoptosis during platelet storage,[2],significantly delayed
same,clearance of stored platelets by the body,[3],inhibits their clearance
same,Bel-xL protein on the mitochondrial membrane,[4],increase
same,co-immunoprecipitation of Bel-xL and BAD,[4],enhanced
same,phosphorylation of serine at the BAD position 155,[4]; room temperature,enhanced
